This note sets out measurements from patent publication US20140255430A1, “METHODS AND REAGENTS FOR DETECTION AND TREATMENT OF ESOPHAGEAL METAPLASIA” (NATIONAL UNIVERSITY OF SINGAPORE, priority 2010, published 2014).

For the series, the system named is Barrett's esophagus progenitor cells. The experiment in a line: Expression microarray: Barrett's esophagus progenitor cells vs gastric cardia progenitor cells (Table YY). In kind it is cell-based, human. The following applies: mRNA expression microarray, clonal Barrett's esophagus progenitor cells vs clonal gastric cardia progenitor cells.

Turning to FGF2, the “Ratio (Barrett's vs. Cardia)” value is recorded as 2.762. Moreover, the “Fold-Change (Barrett's vs. Cardia)” value (negative = lower in Barrett's) worked out at 2.762.
